A short description of this data set: Powder dissolution / in vitro release rate of the pure active compound, phosphate buffer pH 7.4 USP XXIV, paddle process 100 rpm. It counts as physicochemical. The procedure: The measurements of the release rate was carried out according to USP XXIV.
• 1. 80 g of ibuprofen are dissolved in 100 ml of isopropanol at 40° C. Precipitation is then carried out by addition of ice water (450 ml/stirrer speed 50 rpm) during the course of 70 min. During this process cooling to 10° C. takes place. The crystals are recovered by filtration and dried in vacuo. […] 3.2 g of sucrose monolaurate are added as an additive. Precipitation is then carried out by addition of ice water (450 ml/stirrer speed 200 rpm) during the course of 70 min. During this process cooling to 10° C. takes place. The crystals are recovered by filtration, washed with ice water (3×50 ml) and dried in vacuo. […] 8 g of Tween®80 are added as an additive. Precipitation is then carried out by addition of ice water (450 ml/stirrer speed 200 rpm) during the course of 70 min. During this process cooling to 10° C. takes place. The crystals are recovered by filtration, washed with ice water (3×50 ml) and dried in vacuo. […] 80 g of ibuprofen are dissolved in 100 ml of isopropanol at 40° C. 3 g of sucrose monolaurate are added as an additive. Precipitation is then carried out by addition of ice water (450 ml/stirrer speed 200 rpm) during the course of 70 min; during this process, cooling to 10° C. takes place; the crystals are recovered by filtration, washed with ice water (3×150 ml) and dried in vacuo.

The results in this text go back to US20050003000A1, “Method for the formation of ibuprofen crystals” (priority 2001, published 2005).

`COc1ccc2cc([C@H](C)C(=O)O)ccc2c1` [naproxen commercial article, naproxen, reference compound]: the “Time after which a 100% release / dissolution is seen” value was over 30 min. The “Release / dissolution within (after) 2 minutes” value (2 minutes) is on record as 35%.
